# Laboratory results published in publication PMC7819943, “Rice protein-binding microarrays: a tool to detect cis-acting elements near promoter regions in rice”.
# Sequences of proteins named here, by UniProt entry; tags and fusion partners are left off.
# UniProt Q0JBA9, entry or part of it: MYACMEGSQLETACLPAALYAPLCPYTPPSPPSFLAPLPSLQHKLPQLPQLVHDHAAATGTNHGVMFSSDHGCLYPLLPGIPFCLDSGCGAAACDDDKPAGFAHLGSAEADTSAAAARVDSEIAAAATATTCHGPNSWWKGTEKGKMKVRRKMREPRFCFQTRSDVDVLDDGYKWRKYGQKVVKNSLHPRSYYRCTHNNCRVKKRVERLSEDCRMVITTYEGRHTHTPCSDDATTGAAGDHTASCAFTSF
# This is one part of the list.
# Target: OsWRKY34 (Oryza sativa, UniProt Q0JBA9 1-250)
# Assay: protein-binding microarray (RPBM); PBS, 2% BSA, 51.3 ng/ul salmon testes DNA, 50 uM zinc acetate, 200 nM TF, 25 C, 1 h; high values mean tight binding
# Settings: protein: recombinant; tags: N-terminal polyhistidine and DsRed monomer fusion (pET32a); label: CyDye5-dUTP incorporated in the synthesized complementary strand; 3' TTTTT single-stranded linker to array surface; dsDNA, one strand shown
# Method in brief: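 Binding signal here means per-feature fluorescence intensity in arbitrary units. The values were read on an Axon 4000B scanner after a custom Agilent array, double-stranded by primer extension with Cy5-dUTP, was incubated with 200 nM protein at 25 °C for 1 h in PBS with 2% BSA, salmon testes DNA and 50 µM zinc acetate, then washed. The proteins were transcription factors with an N-terminal polyhistidine tag and DsRed, expressed in E. coli BL21-CodonPlus and purified on Ni–NTA.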
row,Sequence,binding signal
1,AACTATATCACGAGTTTTATCTTCTGTGAAAATATCTTTCCGGAGTCACCTAGTGCAG,8410 fluorescence intensity (a.u.)
2,ATCAAATATATCAAACCCCTTGTCAACCACTCGGTTATGTCGGAGTCACCTAGTGCAG,8200 fluorescence intensity (a.u.)
3,GAGGGAATATTAGGTTTTGTTTGGAATATTATATTTTATACGGAGTCACCTAGTGCAG,8810 fluorescence intensity (a.u.)
4,TATTTCCCATACAGTCAGTATCCACTCTATGTTCCACCACCGGAGTCACCTAGTGCAG,9590 fluorescence intensity (a.u.)
5,GTACCCACACAGCGTCCCACCTCGCCGCCGGAGCCAATGACGGAGTCACCTAGTGCAG,8440 fluorescence intensity (a.u.)
6,ACGCCACCGCCATTCCACCTCTCGCTTCGCTTCTTCTCCTCGGAGTCACCTAGTGCAG,9420 fluorescence intensity (a.u.)
7,CGACACGGTCTCCAAAACACAACTTTGACTTCTTGTTTCTCGGAGTCACCTAGTGCAG,10600 fluorescence intensity (a.u.)
8,CCGCCTCCTTTGACCCTACCAAAATTTACCGTTGACCATGCGGAGTCACCTAGTGCAG,20000 fluorescence intensity (a.u.)
9,ATGAATAAGCCCTAACAATGTAACCTTGTTTTTTTTCTGTCGGAGTCACCTAGTGCAG,8060 fluorescence intensity (a.u.)
10,CTGCCTACTGCTGCCCGGACGTCCCTGCACTGCGTCTCCGCGGAGTCACCTAGTGCAG,9200 fluorescence intensity (a.u.)
11,TCGCCATCGATCGATCGTCTCAACCTCAACCACATTATTGCGGAGTCACCTAGTGCAG,8550 fluorescence intensity (a.u.)
12,TCTTTTTTTTGAACTATTTTATTTTTGTGTGTTACGTTGTCGGAGTCACCTAGTGCAG,8840 fluorescence intensity (a.u.)
13,GTTTCCGCGCTTTCCCCTGCTAGCCTCCGCGTGATAGATGCGGAGTCACCTAGTGCAG,8760 fluorescence intensity (a.u.)
14,CGGGTCGTCTACGCCGCCGGCCGCTTCCTCACCTTCCACGCGGAGTCACCTAGTGCAG,8170 fluorescence intensity (a.u.)
15,TATGGCCATCTATACCTCTACTACACCTGCACACCAACCACGGAGTCACCTAGTGCAG,8040 fluorescence intensity (a.u.)
16,ATTATTTTGGTTATTGTGTTGAACAATTGTGAATTTCTGTCGGAGTCACCTAGTGCAG,9310 fluorescence intensity (a.u.)
17,CAAACCTGTGTACTTTCTACGTGTTTTTTCTATGTTTCCGCGGAGTCACCTAGTGCAG,12100 fluorescence intensity (a.u.)
18,CCCACCGCGCTCTCGCTCTGCCACCGCCATTGCGCCACCGCGGAGTCACCTAGTGCAG,9330 fluorescence intensity (a.u.)
19,GTCCAACTCTGGTCCAACGCTGTGAAAAGCCTGACCTCACCGGAGTCACCTAGTGCAG,9160 fluorescence intensity (a.u.)
20,ATGGAGATAATATTCTCTTTTTTGACCGGCTCATCTATCTCGGAGTCACCTAGTGCAG,10800 fluorescence intensity (a.u.)
21,CATGTGTGGTGAGCATATTTGTTTGTACTGTTGTATTTTACGGAGTCACCTAGTGCAG,9560 fluorescence intensity (a.u.)

# Already shown: entries from further up.
row,Sequence,binding signal
17,CAAACCTGTGTACTTTCTACGTGTTTTTTCTATGTTTCCGCGGAGTCACCTAGTGCAG,12100 fluorescence intensity (a.u.)
18,CCCACCGCGCTCTCGCTCTGCCACCGCCATTGCGCCACCGCGGAGTCACCTAGTGCAG,9330 fluorescence intensity (a.u.)
19,GTCCAACTCTGGTCCAACGCTGTGAAAAGCCTGACCTCACCGGAGTCACCTAGTGCAG,9160 fluorescence intensity (a.u.)
20,ATGGAGATAATATTCTCTTTTTTGACCGGCTCATCTATCTCGGAGTCACCTAGTGCAG,10800 fluorescence intensity (a.u.)

# Next results:

row,Sequence,binding signal
1,ACAAAATTTTTATATGTTTCAGAGGTTGATTTTTTTGTTTCGGAGTCACCTAGTGCAG,8890 fluorescence intensity (a.u.)
2,ATTTGGTCTGTTTATTTCAGTTTGCGTGCCAGAAGATTTCCGGAGTCACCTAGTGCAG,11200 fluorescence intensity (a.u.)
3,AGTTTCCATATCCAATGTTTGACCGTCCATCTTATTTAGACGGAGTCACCTAGTGCAG,10900 fluorescence intensity (a.u.)
4,ACACACACACATCTCCATCTCCACATCTCCATTTCCATTTCGGAGTCACCTAGTGCAG,8310 fluorescence intensity (a.u.)
5,CGTCCTTGCCGCCGCCATGGCGTGCAGGCCGGCCATGTGCCGGAGTCACCTAGTGCAG,8180 fluorescence intensity (a.u.)
6,AATCTGTAATTTTGTTTTTATTATTACACTACATTTAATACGGAGTCACCTAGTGCAG,9120 fluorescence intensity (a.u.)
7,ACCGGTGGCTTTGTTTGGTTCCACGGTCTTCAGGTTGGGACGGAGTCACCTAGTGCAG,8130 fluorescence intensity (a.u.)
8,GTCCTACTTTTGCCGCCCTTATGCTTTTTAATTAGTTCTTCGGAGTCACCTAGTGCAG,9490 fluorescence intensity (a.u.)
9,TCGAGGGACGAACGACAGACTTTCTTTTCATTTGTTTCTTCGGAGTCACCTAGTGCAG,9770 fluorescence intensity (a.u.)
10,ACTAAGCTAAGGTTTACCACAACCATCTCGTTTGTTGATTCGGAGTCACCTAGTGCAG,8540 fluorescence intensity (a.u.)
11,ACTTATTTCGACTTTGTAACGGCAAATTCAATACTGCGCACGGAGTCACCTAGTGCAG,8290 fluorescence intensity (a.u.)
12,CCCCACTCTATTACCCGCCCTTTTCTGCTCCGCGCCATCTCGGAGTCACCTAGTGCAG,8180 fluorescence intensity (a.u.)
13,CGTGTGCTTTTTTTTCATCTTTTTCGCTTTAAATTTGTTCCGGAGTCACCTAGTGCAG,11100 fluorescence intensity (a.u.)
14,ATAATTTTCCTTGCTTTCACCATTGCTCTCAAATCTGGCTCGGAGTCACCTAGTGCAG,9380 fluorescence intensity (a.u.)
15,ACCAGTCAACGGTCAAAGTTTCAAACCTCTATATAGTTTCCGGAGTCACCTAGTGCAG,9520 fluorescence intensity (a.u.)
16,TCTCCTTCGTATACGCAATCGGTGTCTCGATCCATATTCCCGGAGTCACCTAGTGCAG,9580 fluorescence intensity (a.u.)
17,TATTCACTTTCATATTTATCATATAGCTAAAAATTTTTACCGGAGTCACCTAGTGCAG,8300 fluorescence intensity (a.u.)
18,CACAGGTTTTGAAGTTGGGGAAGGTATTATACCCGATGTGCGGAGTCACCTAGTGCAG,8660 fluorescence intensity (a.u.)
19,GCCGCTTGCCTTTTCTTCTTTTTTTCATTTCTCTATTTACCGGAGTCACCTAGTGCAG,10400 fluorescence intensity (a.u.)
20,TCACATCCCAGGCTCGGACCAAATCTCAACTCCTGCTAATCGGAGTCACCTAGTGCAG,10400 fluorescence intensity (a.u.)
21,GCGCACCTGATGAATCTGCCCTGCGCCAATCGCTCGTGCTCGGAGTCACCTAGTGCAG,8460 fluorescence intensity (a.u.)

# Taken from above.
# TCGAGGGACGAACGACAGACTTTCTTTTCATTTGTTTCTTCGGAGTCACCTAGTGCAG – binding signal: 9770 fluorescence intensity (a.u.)
# AATCTGTAATTTTGTTTTTATTATTACACTACATTTAATACGGAGTCACCTAGTGCAG – binding signal: 9120 fluorescence intensity (a.u.)

# (list continues)

row,Sequence,binding signal
1,GATTAACCAATCTTTTATCATATTTATTGGTGTATTTATACGGAGTCACCTAGTGCAG,8950 fluorescence intensity (a.u.)
2,CAACTTCTGTACCAATATTTTCTTCCCAACCAATCAAAACCGGAGTCACCTAGTGCAG,8660 fluorescence intensity (a.u.)
3,GACCTTACCTCTAGCTGAGCGGGCTACTCTCGCGTCGTCTCGGAGTCACCTAGTGCAG,8100 fluorescence intensity (a.u.)
4,GTTGCCGCCACATTAAATTGCTTCTCTTGATCTCAAGCGTCGGAGTCACCTAGTGCAG,8670 fluorescence intensity (a.u.)
5,ACGATCTCTCCTTGTTTTTTACTCCTCCTCAGATAATGTTCGGAGTCACCTAGTGCAG,8610 fluorescence intensity (a.u.)
6,CATCCATCTCCATCAACTGATCAGCACACAGCCACATTGTCGGAGTCACCTAGTGCAG,8250 fluorescence intensity (a.u.)
7,GAGTAAAGTGTATTGTTGGTCTCTAAATTTGTTCGTCCGTCGGAGTCACCTAGTGCAG,9450 fluorescence intensity (a.u.)
8,TGTCTATTTCATTAAACCTCGTCCTTTCTTTCATTCCGGACGGAGTCACCTAGTGCAG,8140 fluorescence intensity (a.u.)
9,TTGGCCAGCCTTGGGGATGTGGTTGTGGCTGGCTAGATTTCGGAGTCACCTAGTGCAG,8770 fluorescence intensity (a.u.)
10,CTCGTCTCTCCTCACTCCACTCGACTCCTCACTCATCCTACGGAGTCACCTAGTGCAG,8270 fluorescence intensity (a.u.)
11,TTAGTTTCCTCTTGTTGATCAAACGACATATTCGCCGTGTCGGAGTCACCTAGTGCAG,10100 fluorescence intensity (a.u.)
12,AAAATATCTTTACTTATTACAACGACTGACATTTTTCATACGGAGTCACCTAGTGCAG,8580 fluorescence intensity (a.u.)
13,ATTCCATCCCCGAGTGACAATGCAATCAGTTACAAGTTACCGGAGTCACCTAGTGCAG,8250 fluorescence intensity (a.u.)
14,CAAATTTTTTCGGCGCTATAATATTTCTGTAAATATTAAACGGAGTCACCTAGTGCAG,8140 fluorescence intensity (a.u.)
15,CTGGCCTATATTCATTCTATTCATAATTATAATTGCCATCCGGAGTCACCTAGTGCAG,8930 fluorescence intensity (a.u.)
16,CCCCAGCTTCACTGTTCACACACATCAATGCATCACCAGCCGGAGTCACCTAGTGCAG,9570 fluorescence intensity (a.u.)
17,GTTGTTGCAGTTCCTACACGTACCTAGTATGTTTATTTGACGGAGTCACCTAGTGCAG,8050 fluorescence intensity (a.u.)
18,ACCCCACCTGTCAGACAACCCCACCGCCGCTTCGCTTCACCGGAGTCACCTAGTGCAG,17300 fluorescence intensity (a.u.)
19,GCAAGTTCAAAATCAACTTCTACATTGTTTTTTTCGTTGCCGGAGTCACCTAGTGCAG,8970 fluorescence intensity (a.u.)
20,AGGCTTTTGCTCGTCTTCCGAATTTCCGATCCACCTCGCGCGGAGTCACCTAGTGCAG,8770 fluorescence intensity (a.u.)
21,ACTACCCCTGATCTGATCGCTAATTCGCTATGGTACCTCACGGAGTCACCTAGTGCAG,8630 fluorescence intensity (a.u.)

row,Sequence,binding signal
1,TGAAGAGGTGAGTGTTTTAGGGTTTTGGTTGGGGTTTTGACGGAGTCACCTAGTGCAG,14600 fluorescence intensity (a.u.)
2,CAGCTGCACAGGCGCAGGTGGGGATGGCAGGGGAGGGCAGCGGAGTCACCTAGTGCAG,11300 fluorescence intensity (a.u.)
3,ATGGTGGCCGGTCTTTTTTCCTCTTCGCTCGATGCCAAAACGGAGTCACCTAGTGCAG,8270 fluorescence intensity (a.u.)
4,AGGGATGGTTGGACTTATTTCTTTCGCGTTTTCCTTGGGTCGGAGTCACCTAGTGCAG,10900 fluorescence intensity (a.u.)
5,TGCCGCCGCCGCCACCTCCGCCGCTGTCCGCCGCCGGCGCCGGAGTCACCTAGTGCAG,11200 fluorescence intensity (a.u.)
6,CACAGAGCTCTCGTTGACTTCATCCGTTCCCCTGCTCCTCCGGAGTCACCTAGTGCAG,8420 fluorescence intensity (a.u.)
7,TGTCTATAAATTGCGTCCTCGTCTTCATCTCCATCCAAACCGGAGTCACCTAGTGCAG,10300 fluorescence intensity (a.u.)
8,CTCCCTCTGTTTCTAAATGTTTGACGTCGTTGATTTTTTTCGGAGTCACCTAGTGCAG,8430 fluorescence intensity (a.u.)
9,TTCCTTTTTCTATTTTTGGAATTTATTTTAATTTTTATTTCGGAGTCACCTAGTGCAG,8910 fluorescence intensity (a.u.)
10,TTCATTCCCGCGTATTCTCCTCATTCATCCTAGCTCTCGCCGGAGTCACCTAGTGCAG,15000 fluorescence intensity (a.u.)
11,TTGTGGGACGTGGGTCGGGGATGGATGGATAGGCAAGGCGCGGAGTCACCTAGTGCAG,9730 fluorescence intensity (a.u.)
12,CTAGGGGCATTTTTTAAAATATTTTGTATTTAGTGAAGTACGGAGTCACCTAGTGCAG,10100 fluorescence intensity (a.u.)
13,CTGTTGTGTTGTGTTGTAATATGATTATGTGGGTGCTTATCGGAGTCACCTAGTGCAG,8390 fluorescence intensity (a.u.)
14,CCCACCCACATCTGCCTGGCCCCACCTGCCGCCGTGCGGTCGGAGTCACCTAGTGCAG,8540 fluorescence intensity (a.u.)
15,TCCAACGCTAGCTATATATCTAGCTATCTGTCTCCACATCCGGAGTCACCTAGTGCAG,9600 fluorescence intensity (a.u.)
16,CGAGATTAGTTTAGTTGCTATCTTGTTTGTTCTCCCTTTGCGGAGTCACCTAGTGCAG,8170 fluorescence intensity (a.u.)
17,AGTTTCCACTCTTAAGGCAGTGTTCCGCGTGCACGTTTTTCGGAGTCACCTAGTGCAG,8980 fluorescence intensity (a.u.)
18,AATGTCAGGCTACTTCTGTCTTACACCAATCTCATCCCTACGGAGTCACCTAGTGCAG,9950 fluorescence intensity (a.u.)
19,GTAATTGCCATTGCAACATCCTGGTCTTCATCCAATATTCCGGAGTCACCTAGTGCAG,8860 fluorescence intensity (a.u.)
20,ACATCAGCAGGCACGCTCCACACATCTCGGTCCACTGAAGCGGAGTCACCTAGTGCAG,8100 fluorescence intensity (a.u.)
21,GACTGATGAGCTTTAGGTGGGTCTAACTATTTTTTATTTACGGAGTCACCTAGTGCAG,9240 fluorescence intensity (a.u.)
